Some results were stated once for a whole list of compounds, not compound by compound. At least one structure is not confirmed: it was looked up by name or label, or the drawing left a doubt.
Assay: Zymosan A-induced murine peritonitis: appearance of i.v. labeled omega-3 fatty acids in peritoneal exudates
Type: in vivo, male FVB mice
Conditions: 1 μg/mouse i.v.; GC-MS
Protocol: Male FVB mice were anesthetized with isoflurane (Hospira Inc, Lake Forest, Ill.). Both 1 μg d5-DHA (4Z,7Z,10Z,13Z,16Z,19Z-docosahexaenoic-21,21,22,22,22-d5 acid: Cayman Chemical, Ann Arbor, Mich.) and 1 μg d5-EPA (5Z,8Z,11Z,14Z,17Z-eicosapentaenoic-19,19′,20,20,20-d5 acid: Cayman Chemical, Ann Arbor, Mich.) in 100 μl of 2% ethanol (v/v) in saline or vehicle alone were administered by bolus tail vein injection. Approximately five minutes later, peritonitis was initiated with intraperitoneal administration of 1 mg of zymosan A (Sigma Aldrich, St. Louis, Mo.). At indicated time intervals, mice were euthanized with an overdose of isoflurane, and peritoneal exudates were collected by lavage with 5 ml of DPBS without either Ca^2+ or Mg^2+. […] Serum albumin and total protein levels were determined^32. […]
For tracer experiments, mice were fasted overnight (˜18 h) before 500 nCi of [1-^14C]-DHA (docosahexaenoic acid 4,7,10,13,16,19-[1-^14C], American Radiolabeled Chemicals Inc, St. Louis, Mo.) was injected via the tail vein. At indicated time intervals, exudates were collected (vide supra) and the radioactivity was determined using a scintillation counter (Multi-purpose scintillation counter LS6500, Beckman Coulter, Fullerton, Calif.). […]

| Compound | time to identification in exudates after initiation of inflammation [h] |
| --- | --- |
| [2H]C([2H])([2H])C([2H])([2H])/C=C\C/C=C\C/C=C\C/C=C\C/C=C\C/C=C\CCC(=O)O [d5-DHA, 4Z,7Z,10Z,13Z,16Z,19Z-docosahexaenoic-21,21,22,22,22-d5 acid] | ≤ 1 |
| [2H]C([2H])([2H])C([2H])([2H])/C=C\C/C=C\C/C=C\C/C=C\C/C=C\CCCC(=O)O [d5-EPA, 5Z,8Z,11Z,14Z,17Z-eicosapentaenoic-19,19′,20,20,20-d5 acid] | ≤ 1 |

Reference: US20110237495A1, “FUNCTIONAL METABOLOMICS COUPLED MICROFLUIDIC CHEMOTAXIS DEVICE AND IDENTIFICATION OF NOVEL CELL MEDIATORS” (The Brigham and Women's Hospital, Inc. Corporate Sponsored …, priority 2008, published 2011)
